Results published in PubChem BioAssay AID1347076 (National Center for Advancing Translational Sciences (NCATS), 2019).
“And” between values parts separate entries of the source, which are not always exact repeats. Equal values may be shown once. The whole screen tested about 400,000 compounds, of which about 13,000 (3.2%) were called active. Inconclusive results, whose numbers are uncertain, are shown with a selection of clear calls. Calls follow the shape of the dose curve; as a rule, active = well fitted cell-killing curve with a large enough effect; inconclusive = small, poorly fitted or top-dose-only effect, or effect the other way; inactive = flat fitted curve, though single readings scatter. Potencies beside an inconclusive call are fits to weak or partial responses and may not hold up.
Potency is read from the fitted curve at half-maximal effect.

Assay: qHTS assay for MDR1-selective chemotherapeutics: Primary screen using the drug-selected MDR subline cells KB-V1; also: nearly all actives have a fitted effect of over 60% in size
Conditions: KB-V1 MDR cells viability, CellTiter-Glo, 72 h; series mostly up to 46.1 µM
How it was run: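 Readout: CellTiter-Glo luminescence, 10 min after addition. Cells: KB-V1 MDR subline, 72 h at 37 degrees C with compound. Analysis: corrected, normalized data fitted to concentration-effect curves.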
For `CC(CC(=O)Nc1ccc(F)cc1)S(=O)(=O)c1ccc2c(c1)NC(=O)CO2` (stereo unspecified), the Potency was inconclusive: 9.2 µM [rising, single point]. In the case of `Cc1c(C(=O)Nc2cccc(-c3nnc4n3CCCCC4)c2)oc2ccccc12`, the Potency is reported as inconclusive: 16.4 µM [cytotoxic, partial curve, poor fit]. For `Cc1ccc(NC(=O)CC(C)S(=O)(=O)c2ccc3c(c2)NC(=O)CO3)c(C)c1` (stereo unspecified), the Potency was “inactive”. In the case of `COc1ccc(C(C(=O)NC2CCCCC2)N(Cc2cccs2)C(=O)Cc2c[nH]c3ccccc23)cc1` (stereo unspecified), the Potency is reported as inconclusive: 8.2 µM [cytotoxic, partial curve, poor fit]. For `CCCCCCCCNC(=O)C(CCC(=O)OCc1ccccc1)NC(C)=O` (stereo unspecified), the Potency was inconclusive: 16.4 µM [cytotoxic, single point]. With `N/C(=N\OC(=O)COc1ccc(Br)cc1)c1cccc([N+](=O)[O-])c1` the Potency was inconclusive: 20.6 µM [rising, partial curve, poor fit]. For `CCCN1CCN(C(=O)c2ccc(CS(=O)c3ccc(Cl)cc3)o2)CC1` (stereo unspecified), the Potency was “inactive”. For `Cc1cccc(C(=O)Nc2nnc(SCC(=O)NC3CC3)s2)c1`, the Potency was inconclusive: 18.4 µM [cytotoxic, single point]. For `Cc1ccc(C(=O)CSc2nnc3ccccn23)c(C)c1`, the Potency was inconclusive: 25.9 µM [cytotoxic, single point]. With `Cc1nc2ccccc2c(=O)n1NC(=O)c1c(F)cccc1F` the Potency was “inactive”. With `O=C(C1CC1)N1CCN(S(=O)(=O)c2ccc3c(c2)OCCO3)CC1` the Potency was inconclusive: 16.4 µM [cytotoxic, single point]. With `COc1ccc(N(C(=O)CNC(=O)c2cccs2)C(C(=O)NC2CCCC2)c2cccnc2)cc1` (stereo unspecified) the Potency was inconclusive: 29.1 µM [rising, partial curve, poor fit]. With `CCOC(=O)N1CCN=C1SCc1ccc(C(F)(F)F)cc1` the Potency was inconclusive: 18.4 µM [cytotoxic, partial curve, poor fit]. In the case of `C=CCn1c(N)c(C(=O)OCCC)c2nc3ccccc3nc21`, the Potency is reported as inconclusive: 23.1 µM [cytotoxic, single point]. With `O=C(c1ccc(Cl)cc1)c1cccc(O)c1` the Potency was inconclusive: 23.1 µM [cytotoxic, partial curve, poor fit]. In the case of `CCOc1ccc(C(C)(N)C(=O)O)cc1` (stereo unspecified), the Potency is reported as inconclusive: 32.6 µM [rising, single point]. For `COc1cc2c(OC(C)=O)c3c(c(-c4ccc5c(c4)OCO5)c2cc1OC)C(=O)OC3`, the Potency was inconclusive: 29.1 µM [cytotoxic, single point]. In the case of `CC(=O)c1nn(-c2ccc(Cl)cc2)cc1C(=O)c1ccc(C)cc1`, the Potency is reported as inconclusive: 29.1 µM [cytotoxic, single point]. For `O=C(O)C1CCN(c2ccc(S(=O)(=O)N3CCC(C(=O)O)CC3)cc2[N+](=O)[O-])CC1`, the Potency was inconclusive: 2.91 µM [cytotoxic, partial curve, poor fit]. In the case of `CCn1c(COc2ccccc2C)nnc1SCC(=O)Nc1ccc2c(c1)OCCO2`, the Potency is reported as active: 4.61 µM. In the case of `Cc1nn(-c2ccccc2)c(Cl)c1C(=O)NCCN(C)C`, the Potency is reported as inconclusive: 29.1 µM [rising, single point]. With `Cc1cc(C(=O)C(C)OC(=O)C2=NNC(=O)CC2)c(C)n1-c1ccc(OC(F)F)cc1` (stereo unspecified) the Potency was inconclusive: 20.6 µM [cytotoxic, single point]. In the case of `Cc1c(NC(=O)Cc2ccccc2)cccc1C(=O)NN1C(=O)c2ccccc2C1=O`, the Potency is reported as inconclusive: 20.6 µM [cytotoxic, single point]. With `Cc1ccc2c(c1)C1CN(C)CCC1N2C(=S)Nc1ccc(Cl)cc1Cl` (stereo unspecified) the Potency was inconclusive: 20.6 µM [cytotoxic, single point]. For `Nc1cc(N2CCCCCC2)c2nonc2c1[N+](=O)[O-]`, the Potency was active: 8.2 µM. With `Cc1ccc(NC(=O)Cc2c(C(=O)O)c(C)cn2C)cc1Cl` the Potency was inconclusive: 6.51 µM [rising, full curve, poor fit]. In the case of `COc1cc(OC)c(NC(=O)CN2C(=O)CCn3nc(-c4cccn4C)cc32)cc1Cl`, the Potency is reported as “inactive”. With `O=C(CN1C(=O)NC2(CCCc3ccccc32)C1=O)c1ccc(F)cc1` (stereo unspecified) the Potency was “inactive”. With `O=C(Nc1cccc2c1CCCC2)c1ccccc1Br` the Potency was “inactive”. In the case of `O=C(Nc1ccn(Cc2cccc3ccccc23)n1)c1cccnc1`, the Potency is reported as “inactive”. For `CCOc1ccc(NC2OCC(O)C(O)C2O)c([N+](=O)[O-])c1` (stereo unspecified), the Potency was inconclusive: 29.1 µM [rising, single point]. In the case of `O=S(=O)(NCCCCCNS(=O)(=O)c1ccc(F)cc1)c1ccc(F)cc1`, the Potency is reported as inconclusive: 35.5 µM [cytotoxic, single point]. In the case of `O=C(CN1CCC(n2nnc3cc(F)ccc32)CC1)N1CCc2ccccc2C1`, the Potency is reported as inconclusive: 8.2 µM [cytotoxic, partial curve]. With `CCN(CC)CC(C)CNC(=O)CN1C(=O)CSc2ccc(S(=O)(=O)N3CCOCC3)cc21` (stereo unspecified) the Potency was inconclusive: 29.1 µM [rising, single point]. For `COc1ccc(OC)c(CN2CCN(C(=O)c3cccc(S(=O)(=O)Nc4ccccc4OC)c3)CC2)c1`, the Potency was inconclusive: 7.31 µM [cytotoxic, partial curve]. With `O=C(CSc1nccc2ccccc12)N1CCN(Cc2ccc3c(c2)OCO3)CC1` the Potency was inconclusive: 20.6 µM [cytotoxic, single point]. With `COc1ccc(NC(=O)C(NS(=O)(=O)c2ccc3c(c2)CCCC(=O)N3)C(C)C)c(OC)c1` (stereo unspecified) the Potency was “inactive”. In the case of `CCc1cc2c(NCC(=O)O)ncnc2s1`, the Potency is reported as “inactive”. In the case of `COc1ccc(-c2noc(N3CCC(C(=O)NC(C)c4ccccc4)CC3)n2)cc1` (stereo unspecified), the Potency is reported as “inactive”. In the case of `Cc1ccc(-c2nc(N3CCOCC3)sc2C(=O)N2CCCCC2)cc1`, the Potency is reported as active: 18.4 µM. With `CCCCN(C(=O)c1cc(=O)[nH]c2ccccc12)c1c(N)n(CCC)c(=O)[nH]c1=O` the Potency was inconclusive: 20.6 µM [rising, single point]. In the case of `COc1ccc(S(=O)(=O)N(CC(=O)NCc2ccco2)c2ccc(C)cc2)cc1OC`, the Potency is reported as inconclusive: 3.66 µM [cytotoxic, full curve]. In the case of `COc1cccc(/C=N/Nc2cc(C)nc(-c3ccccc3O)n2)c1O`, the Potency is reported as inconclusive: 29.1 µM [cytotoxic, single point]. With `Cc1ccc(/C=N/NC(=O)C(O)c2ccccc2)o1` (stereo unspecified) the Potency was inconclusive: 29.1 µM [rising, partial curve, poor fit]. For `CCCCCCCCCC[n+]1ccc(/C=C/c2ccc(N(C)C)cc2)c2ccccc21`, the Potency was inconclusive: 25.9 µM [cytotoxic, partial curve, poor fit]. For `CCCS(=O)(=O)NC(=O)C1(C)CCCN(C(=O)c2oc3ccccc3c2C)C1` (stereo unspecified), the Potency was “inactive”. In the case of `O=C(NCC(F)(F)F)c1nn(Cc2ccccc2)c(=O)c2ccccc12`, the Potency is reported as inconclusive: 3.26 µM [cytotoxic, full curve, poor fit]. In the case of `CCn1c(=O)c2cc(C(=O)Nc3ccccc3OC)sc2c2ccccc21`, the Potency is reported as inconclusive: 3.66 µM [cytotoxic, partial curve]. In the case of `O=C(Nc1ccccc1N1CCCCC1)c1ccc(OC(F)F)cc1`, the Potency is reported as “inactive”. For `NS(=O)(=O)c1ccc(CCNC(=O)C2COc3ccccc3C2)cc1` (stereo unspecified), the Potency was inconclusive: 4.11 µM [rising, full curve]. With `CC(C)c1ccc(NC2CCCN(C(=O)CCc3cnn(C)c3)C2)cc1` (stereo unspecified) the Potency was inconclusive: 20.6 µM [cytotoxic, single point]. In the case of `Cc1cccc(OCCCC(=O)NNC(=O)CCN2CCN(c3ccccc3)CC2)c1`, the Potency is reported as “inactive”. For `O=C(CN1C(=O)c2ccccc2S1(=O)=O)NCCSCc1cccc(Cl)c1`, the Potency was inconclusive: 16.4 µM [rising, single point]. For `CCN(c1cccc(C)c1)S(=O)(=O)c1ccc2c3c(cccc13)C(=O)N2`, the Potency was inconclusive: 35.5 µM [cytotoxic, single point]. In the case of `O=C(NCCCN1CCOCC1)C(=O)NCC1CCCO1` (stereo unspecified), the Potency is reported as inconclusive: 7.31 µM [rising, partial curve]. For `Cc1ccc(C(=O)OCC(=O)NC2CCCCCCC2)cc1C`, the Potency was “inactive”. For `CS(=O)(=O)c1ccc(Nc2nc(C(N)Cc3ccc(F)cc3)cs2)cc1` (stereo unspecified), the Potency was “inactive”. For `O=C(Nc1ccccc1N1CCCC1)c1cc2ccccc2o1`, the Potency was inconclusive: 16.4 µM [cytotoxic, single point]. In the case of `COc1cc2c(cc1OC)C1CCc3cc4c(cc3C1N=C2)OCO4` (stereo unspecified), the Potency is reported as inconclusive: 16.4 µM [cytotoxic, partial curve]. In the case of `Cc1ccc(Cn2c(=O)c3cccnc3n(CC(=O)Nc3cccc(C(F)(F)F)c3)c2=O)cc1`, the Potency is reported as “inactive”. With `C[C@@H]1CCCCO[C@H](CN(C)Cc2ccc(C(F)(F)F)cc2)[C@H](C)CN([C@@H](C)CO)C(=O)c2cc(NC(=O)Cc3ccccc3)ccc2O1` the Potency was active: 25.9 µM. In the case of `Cc1cc(C)n(-c2ccc(C(=O)Nc3cccc([N+](=O)[O-])c3)cc2)n1`, the Potency is reported as inconclusive: 2.06 µM [cytotoxic, full curve, poor fit]. With `Cc1c2ccccc2nc2c(F)c(N(C)C)c(F)c(F)c12` the Potency was inconclusive: 29.1 µM [cytotoxic, single point]. With `COc1ccc(OC)c(NC(=O)CSc2ccc3nnc(-c4cccnc4)n3n2)c1` the Potency was “inactive”. In the case of `Cn1c(SCC(=O)NCCc2ccccc2)nc2c([nH]c3ccccc32)c1=O`, the Potency is reported as inconclusive: 6.51 µM [cytotoxic, partial curve]. In the case of `Cc1ccc(NC(=O)c2cc(S(=O)(=O)NCCC3=CCCCC3)ccc2F)cc1F`, the Potency is reported as inconclusive: 13 µM [cytotoxic, partial curve, poor fit] and active: 10.3 µM.
